No constants are given. Whether binding was seen depends on the method and setting. Some binding calls cover weakened binding; strength is not graded here. Tags and fused reporters may be left off the sequences shown.
Molecular target: fused protein GST-GPC3 (GST and human glypican-3 peptide of SEQ ID NO: 16) (human) (UniProt P51654)
Experiment: SPR (BIACORE 3000), CHO culture supernatant over immobilized GST-GPC3

The chains behind the UniProt entries cited, without tags or fusion partners. Where a name states a change or a piece, a line headed by the entry shows the natural chain unless it says otherwise.
UniProt P51654: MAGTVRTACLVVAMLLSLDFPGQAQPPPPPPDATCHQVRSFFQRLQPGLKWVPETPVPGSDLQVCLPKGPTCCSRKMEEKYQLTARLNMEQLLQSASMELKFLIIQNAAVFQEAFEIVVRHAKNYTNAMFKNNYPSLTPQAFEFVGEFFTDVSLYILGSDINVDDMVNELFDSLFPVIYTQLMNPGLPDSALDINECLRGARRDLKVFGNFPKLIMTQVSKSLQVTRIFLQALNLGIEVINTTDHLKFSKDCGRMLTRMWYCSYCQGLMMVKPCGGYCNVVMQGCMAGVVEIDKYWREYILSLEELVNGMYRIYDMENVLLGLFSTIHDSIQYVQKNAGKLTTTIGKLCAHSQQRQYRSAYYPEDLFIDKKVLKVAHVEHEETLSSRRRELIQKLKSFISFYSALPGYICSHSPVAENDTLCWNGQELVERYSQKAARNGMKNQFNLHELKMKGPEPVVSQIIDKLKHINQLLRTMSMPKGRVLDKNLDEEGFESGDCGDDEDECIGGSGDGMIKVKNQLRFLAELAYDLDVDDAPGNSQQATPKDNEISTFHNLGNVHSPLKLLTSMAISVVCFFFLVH

- binding: binds
B1: Fc-modified humanized anti-GPC3 antibody V1608 (S239D/S298A/K326T/I332E as printed in the table) (antibody, human IgG1, V domains shown)
VH: QVQLVQSGAEVKKPGASVKVSCKASGYTFTDYEMHWVRQAPGQGLEWMGALDPKTGDTAYSQKFKGRVTLTADKSTSTAYMELSSLTSEDTAVYYCTRFYSYTYWGQGTLVTVSS
VL: DVVMTQSPLSLPVTPGEPASISCRSSQSLVHSNGNTYLHWYLQKPGQSPQLLIYKVSNRFSGVPDRFSGSGSGTDFTLKISRVEAEDVGVYYCSQNTHVPPTFGQGTKLEIK

Source: patent US20150098941A1
